Experimental data from patent publication US12521402B2, “Biomarker and drug combinations for heart failure prediction” (Endothelium Scanning Nanotechnology Limited, priority 2022, dated 2026).

B1: SRSF8 (protein, UniProt Q9BRL6 2-282, looked up)
Serine/arginine-rich splicing …: SCGRPPPDVDGMITLKVDNLTYRTSPDSLRRVFEKYGRVGDVYIPREPHTKAPRGFAFVRFHDRRDAQDAEAAMDGAELDGRELRVQVARYGRRDLPRSRQGEPRGRSRGGGYGRRSRSYGRRSRSPRRRHRSRSRGPSCSRSRSRSRYRGSRYSRSPYSRSPYSRSRYSRSPYSRSRYRESRYGGSHYSSSGYSNSRYSRYHSSRSHSKSGSSTSSRSASTSKSSSARRSKSSSVSRSRSRSRSSSMTRSPPRVSKRKSKSRSRSKRPPKSPEEEGQMSS
B2: CRIS3 (protein, UniProt P54108 21-245, looked up)
Cysteine-rich secretory …: NEDKDPAFTALLTTQTQVQREIVNKHNELRRAVSPPARNMLKMEWNKEAAANAQKWANQCNYRHSNPKDRMTSLKCGENLYMSSASSSWSQAIQSWFDEYNDFDFGVGPKTPNAVVGHYTQVVWYSSYLVGCGNAYCPNQKVLKYYYVCQYCPAGNWANRLYVPYEQGAPCASCPDNCDDGLCTNGCKYEDLYSNCKSLKLTLTCKHQLVRDSCKASCNCSNSIY
B3: LV319 (protein, UniProt P01714 21-112, looked up)
Immunoglobulin lambda …: SELTQDPAVSVALGQTVRITCQGDSLRSYYASWYQQKPGQAPVLVIYGKNNRPSGIPDRFSGSSSGNTASLTITGAQAEDEADYYCNSRDSS
B4: HPRT (protein, UniProt P00492 2-218, looked up)
Hypoxanthine-guanine …: ATRSPGVVISDDEPGYDLDLFCIPNHYAEDLERVFIPHGLIMDRTERLARDVMKEMGGHHIVALCVLKGGYKFFADLLDYIKALNRNSDRSIPMTVDFIRLKSYCNDQSTGDIKVIGGDDLSTLTGKNVLIVEDIIDTGKTMQTLLSLVRQYNPKMVKVASLLVKRTPRSVGYKPDFVGFEIPDKFVVGYALDYNEYFRDLNHVCVISETGKAKYKA
B5: S10AG (protein, UniProt Q96FQ6 1-103, looked up)
Protein S100-A16: MSDCYTELEKAVIVLVENFYKYVSKYSLVKNKISKSSFREMLQKELNHMLSDTGNRKAADKLIQNLDANHDGRISFDEYWTLIGGITGPIAKLIHEQEQQSSS
B6: ABCB9 (protein, UniProt Q9NP78 1-766, looked up)
ABC-type oligopeptide …: MRLWKAVVVTLAFMSVDICVTTAIYVFSHLDRSLLEDIRHFNIFDSVLDLWAACLYRSCLLLGATIGVAKNSALGPRRLRASWLVITLVCLFVGIYAMVKLLLFSEVRRPIRDPWFWALFVWTYISLGASFLLWWLLSTVRPGTQALEPGAATEAEGFPGSGRPPPEQASGATLQKLLSYTKPDVAFLVAASFFLIVAALGETFLPYYTGRAIDGIVIQKSMDQFSTAVVIVCLLAIGSSFAAGIRGGIFTLIFARLNIRLRNCLFRSLVSQETSFFDENRTGDLISRLTSDTTMVSDLVSQNINVFLRNTVKVTGVVVFMFSLSWQLSLVTFMGFPIIMMVSNIYGKYYKRLSKEVQNALARASNTAEETISAMKTVRSFANEEEEAEVYLRKLQQVYKLNRKEAAAYMYYVWGSGLTLLVVQVSILYYGGHLVISGQMTSGNLIAFIIYEFVLGDCMESVGSVYSGLMQGVGAAEKVFEFIDRQPTMVHDGSLAPDHLEGRVDFENVTFTYRTRPHTQVLQNVSFSLSPGKVTALVGPSGSGKSSCVNILENFYPLEGGRVLLDGKPISAYDHKYLHRVISLVSQEPVLFARSITDNISYGLPTVPFEMVVEAAQKANAHGFIMELQDGYSTETGEKGAQLSGGQKQRVAMARALVRNPPVLILDEATSALDAESEYLIQQAIHGNLQKHTVLIIAHRLSTVEHAHLIVVLDKGRVVQQGTHQQLLAQGGLYAKLVQRQMLGLQPAADFTAGHNEPVANGSHKA
B7: PAK2 (protein, UniProt Q13177 2-524, looked up)
Serine/threonine-protein …: SDNGELEDKPPAPPVRMSSTIFSTGGKDPLSANHSLKPLPSVPEEKKPRHKIISIFSGTEKGSKKKEKERPEISPPSDFEHTIHVGFDAVTGEFTGMPEQWARLLQTSNITKLEQKKNPQAVLDVLKFYDSNTVKQKYLSFTPPEKDGFPSGTPALNAKGTEAPAVVTEEEDDDEETAPPVIAPRPDHTKSIYTRSVIDPVPAPVGDSHVDGAAKSLDKQKKKTKMTDEEIMEKLRTIVSIGDPKKKYTRYEKIGQGASGTVFTATDVALGQEVAIKQINLQKQPKKELIINEILVMKELKNPNIVNFLDSYLVGDELFVVMEYLAGGSLTDVVTETCMDEAQIAAVCRECLQALEFLHANQVIHRDIKSDNVLLGMEGSVKLTDFGFCAQITPEQSKRSTMVGTPYWMAPEVVTRKAYGPKVDIWSLGIMAIEMVEGEPPYLNENPLRALYLIATNGTPELQNPEKLSPIFRDFLNRCLEMDVEKRGSAKELLQHPFLKLAKPLSSLTPLIMAAKEAMKSNR
B8: PLCG2 (protein, UniProt P16885 1-1265, looked up)
1-phosphatidylinositol …: MSTTVNVDSLAEYEKSQIKRALELGTVMTVFSFRKSTPERRTVQVIMETRQVAWSKTADKIEGFLDIMEIKEIRPGKNSKDFERAKAVRQKEDCCFTILYGTQFVLSTLSLAADSKEDAVNWLSGLKILHQEAMNASTPTIIESWLRKQIYSVDQTRRNSISLRELKTILPLINFKVSSAKFLKDKFVEIGAHKDELSFEQFHLFYKKLMFEQQKSILDEFKKDSSVFILGNTDRPDASAVYLHDFQRFLIHEQQEHWAQDLNKVRERMTKFIDDTMRETAEPFLFVDEFLTYLFSRENSIWDEKYDAVDMQDMNNPLSHYWISSSHNTYLTGDQLRSESSPEAYIRCLRMGCRCIELDCWDGPDGKPVIYHGWTRTTKIKFDDVVQAIKDHAFVTSSFPVILSIEEHCSVEQQRHMAKAFKEVFGDLLLTKPTEASADQLPSPSQLREKIIIKHKKLGPRGDVDVNMEDKKDEHKQQGELYMWDSIDQKWTRHYCAIADAKLSFSDDIEQTMEEEVPQDIPPTELHFGEKWFHKKVEKRTSAEKLLQEYCMETGGKDGTFLVRESETFPNDYTLSFWRSGRVQHCRIRSTMEGGTLKYYLTDNLTFSSIYALIQHYRETHLRCAEFELRLTDPVPNPNPHESKPWYYDSLSRGEAEDMLMRIPRDGAFLIRKREGSDSYAITFRARGKVKHCRINRDGRHFVLGTSAYFESLVELVSYYEKHSLYRKMRLRYPVTPELLERYNMERDINSLYDVSRMYVDPSEINPSMPQRTVKALYDYKAKRSDELSFCRGALIHNVSKEPGGWWKGDYGTRIQQYFPSNYVEDISTADFEELEKQIIEDNPLGSLCRGILDLNTYNVVKAPQGKNQKSFVFILEPKQQGDPPVEFATDRVEELFEWFQSIREITWKIDTKENNMKYWEKNQSIAIELSDLVVYCKPTSKTKDNLENPDFREIRSFVETKADSIIRQKPVDLLKYNQKGLTRVYPKGQRVDSSNYDPFRLWLCGSQMVALNFQTADKYMQMNHALFSLNGRTGYVLQPESMRTEKYDPMPPESQRKILMTLTVKVLGARHLPKLGRSIACPFVEVEICGAEYDNNKFKTTVVNDNGLSPIWAPTQEKVTFEIYDPNLAFLRFVVYEEDMFSDPNFLAHATYPIKAVKSGFRSVPLKNGYSEDIELASLLVFCEMRPVLESEEELYSSCRQLRRRQEELNNQLFLYDTHQNLRNANRDALVKEFSVNENQLQLYQEKCNKRLREKRVSNSKFYS
B9: SLPI (protein, UniProt P03973 26-132, looked up)
Antileukoproteinase: SGKSFKAGVCPPKKSAQCLRYKKPECQSDWQCPGKKRCCPDTCGIKCLDPVDTPNPTRRKPGKCPVTYGQCLMLNPPNFCEMDGQCKRDLKCCMGMCGKSCVSPVKA

test: Saliva proteomics: biomarker quantification by mass spectrometry SWATH in participants at risk of heart failure vs controls; parameters: species or system human; details: differential expression (fold) control vs 'at risk'; printed as larger/smaller average whatever the direction

| Molecule | Control vs Risk |
| --- | --- |
| B1 | 2.75 |
| B2 | 2.74 |
| B3 | 3.12 |
| B4 | 2.74 |
| B5 | 3.18 |
| B6 | 11.14 |
| B7 | 3.09 |
| B8 | 3.20 |
| B9 | 10.46 |

same assay, conditions: saliva, 'at risk' of heart failure group mean, mass spectrometry SWATH quantification

| Molecule | AtRisk average |
| --- | --- |
| B1 | 141,319 ng/ml |
| B2 | 13,156,769 ng/ml |
| B3 | 462,857 ng/ml |
| B4 | 118,436 ng/ml |
| B5 | 203,832 ng/ml |
| B6 | 2,886,652 ng/ml |
| B7 | 47,302 ng/ml |
| B8 | 171,703 ng/ml |
| B9 | 448,243 ng/ml |

same assay, conditions: saliva, control group mean, mass spectrometry SWATH quantification

| Molecule | Control average |
| --- | --- |
| B1 | 51,306 ng/ml |
| B2 | 35,993,306 ng/ml |
| B3 | 1,442,287 ng/ml |
| B4 | 323,998 ng/ml |
| B5 | 648,580 ng/ml |
| B6 | 259,205 ng/ml |
| B7 | 146,112 ng/ml |
| B8 | 53,680 ng/ml |
| B9 | 4,688,764 ng/ml |
